Results reported in patent publication US10159663B2, “Substituted macrocycles useful as kinases inhibitors and methods of use thereof” (TELIGENE LTD., priority 2014, dated 2018).
Some entries share one result that the patent states for a list of compounds.

The chains behind the UniProt entries cited, without tags or fusion partners.
UniProt P08684, whole entry: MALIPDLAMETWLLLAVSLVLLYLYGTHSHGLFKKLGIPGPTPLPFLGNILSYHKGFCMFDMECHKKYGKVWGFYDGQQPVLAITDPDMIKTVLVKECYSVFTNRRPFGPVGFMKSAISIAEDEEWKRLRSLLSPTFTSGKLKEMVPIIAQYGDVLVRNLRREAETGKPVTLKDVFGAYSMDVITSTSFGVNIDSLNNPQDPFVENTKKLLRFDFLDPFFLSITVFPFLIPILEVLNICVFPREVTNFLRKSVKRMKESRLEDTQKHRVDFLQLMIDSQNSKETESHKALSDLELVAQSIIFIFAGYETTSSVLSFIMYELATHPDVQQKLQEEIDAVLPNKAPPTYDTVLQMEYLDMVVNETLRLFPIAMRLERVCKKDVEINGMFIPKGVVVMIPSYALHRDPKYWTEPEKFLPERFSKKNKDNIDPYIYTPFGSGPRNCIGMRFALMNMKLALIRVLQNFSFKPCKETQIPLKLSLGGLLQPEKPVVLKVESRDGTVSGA

Biological target: T1, CYP 3A4 (Homo sapiens, UniProt P08684)
T1 construct: Incubation mixtures in duplicate contain pooled human liver microsome (0.1 mg/mL); from tissue; host or cells: pooled human liver microsomes
Assay: P450 3A4 assay in human liver microsomes
Format: in vitro ADME
Description: The final concentrations of DMSO and acetonitrile were equal or less than 0.1%.
The column temperature was maintained at ambient temperature (25° C.). […] The flow rate was maintained at 0.6 mL/min.

SMILES: CC(=O)Nc1ncc2cc1O[C@H](C)c1cc(F)ccc1C(=O)N(C)Cc1nn(C)c(C#N)c1-2 [Compound 10, (10R)-7-acetamido-12-fluoro-2,10,16-trimethyl-15-oxo-10,15,16,17-tetrahydro-2H-8,4-(metheno)pyrazolo[4,3-h][2,5,11]-benzoxadiazacyclotetradecine-3-carbonitrile]
- Cytochrome P450 3A4 inhibition (DDI risk class): low (IC50>10 μM CYP inhibition low)
